# Test results as given in the supplement of paper PMC12819154, “High-throughput peptide-centric local stability assay extends protein–ligand identification to membrane proteins, tissues and bacteria” (Nature Structural & Molecular Biology, 2025).
# Sequences of proteins named here, by UniProt entry; tags and fusion partners are left off. A change or cut given only in a name is not applied to a line headed by its entry.
# UniProt Q9Y366: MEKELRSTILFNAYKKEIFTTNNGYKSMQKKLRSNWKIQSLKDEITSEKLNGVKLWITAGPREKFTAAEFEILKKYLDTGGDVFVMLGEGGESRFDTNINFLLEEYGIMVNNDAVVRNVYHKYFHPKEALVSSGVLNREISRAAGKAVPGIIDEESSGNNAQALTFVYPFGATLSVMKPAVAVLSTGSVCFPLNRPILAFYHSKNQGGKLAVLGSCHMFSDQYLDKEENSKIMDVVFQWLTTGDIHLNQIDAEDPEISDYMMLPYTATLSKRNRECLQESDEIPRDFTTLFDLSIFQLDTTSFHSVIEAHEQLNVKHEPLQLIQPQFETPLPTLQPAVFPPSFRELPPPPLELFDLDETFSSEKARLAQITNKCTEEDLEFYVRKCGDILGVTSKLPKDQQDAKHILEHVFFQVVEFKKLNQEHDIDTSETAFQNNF
# UniProt Q9Y6B2: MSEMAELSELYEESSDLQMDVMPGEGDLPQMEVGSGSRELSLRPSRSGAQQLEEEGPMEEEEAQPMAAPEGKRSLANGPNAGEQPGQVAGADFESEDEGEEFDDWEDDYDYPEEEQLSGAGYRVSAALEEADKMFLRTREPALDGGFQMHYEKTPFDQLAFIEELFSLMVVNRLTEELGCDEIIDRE
# UniProt Q9Y5W9: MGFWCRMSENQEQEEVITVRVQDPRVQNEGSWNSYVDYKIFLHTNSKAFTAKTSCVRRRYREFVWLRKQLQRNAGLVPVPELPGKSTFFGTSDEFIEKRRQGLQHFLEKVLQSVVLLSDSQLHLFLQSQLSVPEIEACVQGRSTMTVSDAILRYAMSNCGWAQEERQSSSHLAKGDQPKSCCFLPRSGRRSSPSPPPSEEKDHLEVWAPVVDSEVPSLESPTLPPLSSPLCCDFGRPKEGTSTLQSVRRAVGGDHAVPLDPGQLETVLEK
# UniProt Q9Y6M9, whole entry: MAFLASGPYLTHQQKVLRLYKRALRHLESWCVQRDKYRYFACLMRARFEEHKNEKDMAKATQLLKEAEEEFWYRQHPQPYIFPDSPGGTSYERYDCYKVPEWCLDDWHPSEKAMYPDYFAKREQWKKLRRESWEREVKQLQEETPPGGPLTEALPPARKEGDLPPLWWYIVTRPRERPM
# UniProt Q9Y6A4: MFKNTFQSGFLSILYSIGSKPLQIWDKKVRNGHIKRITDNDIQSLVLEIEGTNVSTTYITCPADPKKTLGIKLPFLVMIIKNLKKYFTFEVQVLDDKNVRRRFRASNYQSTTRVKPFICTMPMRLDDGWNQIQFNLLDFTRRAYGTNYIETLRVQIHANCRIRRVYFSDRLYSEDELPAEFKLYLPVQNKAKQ
# UniProt Q9Y3E1: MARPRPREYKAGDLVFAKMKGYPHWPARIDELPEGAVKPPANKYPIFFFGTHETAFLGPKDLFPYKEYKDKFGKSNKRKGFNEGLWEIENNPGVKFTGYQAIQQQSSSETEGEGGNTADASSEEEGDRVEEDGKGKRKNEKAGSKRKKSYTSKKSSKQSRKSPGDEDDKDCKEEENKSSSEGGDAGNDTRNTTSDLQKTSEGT
# UniProt Q9Y333: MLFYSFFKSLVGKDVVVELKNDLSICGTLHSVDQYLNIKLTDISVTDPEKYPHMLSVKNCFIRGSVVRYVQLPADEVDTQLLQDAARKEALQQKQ
# UniProt Q9Y5B8, whole entry: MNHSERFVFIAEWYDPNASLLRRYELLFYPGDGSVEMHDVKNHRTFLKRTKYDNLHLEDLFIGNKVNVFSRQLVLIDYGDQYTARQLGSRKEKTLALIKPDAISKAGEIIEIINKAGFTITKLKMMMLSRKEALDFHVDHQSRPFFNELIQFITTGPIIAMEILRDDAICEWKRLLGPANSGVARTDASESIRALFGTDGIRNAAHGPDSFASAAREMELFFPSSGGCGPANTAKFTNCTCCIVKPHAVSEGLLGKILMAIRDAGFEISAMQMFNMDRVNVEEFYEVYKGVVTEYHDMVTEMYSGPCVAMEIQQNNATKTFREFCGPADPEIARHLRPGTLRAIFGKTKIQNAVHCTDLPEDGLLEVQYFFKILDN
# UniProt Q9Y4B4: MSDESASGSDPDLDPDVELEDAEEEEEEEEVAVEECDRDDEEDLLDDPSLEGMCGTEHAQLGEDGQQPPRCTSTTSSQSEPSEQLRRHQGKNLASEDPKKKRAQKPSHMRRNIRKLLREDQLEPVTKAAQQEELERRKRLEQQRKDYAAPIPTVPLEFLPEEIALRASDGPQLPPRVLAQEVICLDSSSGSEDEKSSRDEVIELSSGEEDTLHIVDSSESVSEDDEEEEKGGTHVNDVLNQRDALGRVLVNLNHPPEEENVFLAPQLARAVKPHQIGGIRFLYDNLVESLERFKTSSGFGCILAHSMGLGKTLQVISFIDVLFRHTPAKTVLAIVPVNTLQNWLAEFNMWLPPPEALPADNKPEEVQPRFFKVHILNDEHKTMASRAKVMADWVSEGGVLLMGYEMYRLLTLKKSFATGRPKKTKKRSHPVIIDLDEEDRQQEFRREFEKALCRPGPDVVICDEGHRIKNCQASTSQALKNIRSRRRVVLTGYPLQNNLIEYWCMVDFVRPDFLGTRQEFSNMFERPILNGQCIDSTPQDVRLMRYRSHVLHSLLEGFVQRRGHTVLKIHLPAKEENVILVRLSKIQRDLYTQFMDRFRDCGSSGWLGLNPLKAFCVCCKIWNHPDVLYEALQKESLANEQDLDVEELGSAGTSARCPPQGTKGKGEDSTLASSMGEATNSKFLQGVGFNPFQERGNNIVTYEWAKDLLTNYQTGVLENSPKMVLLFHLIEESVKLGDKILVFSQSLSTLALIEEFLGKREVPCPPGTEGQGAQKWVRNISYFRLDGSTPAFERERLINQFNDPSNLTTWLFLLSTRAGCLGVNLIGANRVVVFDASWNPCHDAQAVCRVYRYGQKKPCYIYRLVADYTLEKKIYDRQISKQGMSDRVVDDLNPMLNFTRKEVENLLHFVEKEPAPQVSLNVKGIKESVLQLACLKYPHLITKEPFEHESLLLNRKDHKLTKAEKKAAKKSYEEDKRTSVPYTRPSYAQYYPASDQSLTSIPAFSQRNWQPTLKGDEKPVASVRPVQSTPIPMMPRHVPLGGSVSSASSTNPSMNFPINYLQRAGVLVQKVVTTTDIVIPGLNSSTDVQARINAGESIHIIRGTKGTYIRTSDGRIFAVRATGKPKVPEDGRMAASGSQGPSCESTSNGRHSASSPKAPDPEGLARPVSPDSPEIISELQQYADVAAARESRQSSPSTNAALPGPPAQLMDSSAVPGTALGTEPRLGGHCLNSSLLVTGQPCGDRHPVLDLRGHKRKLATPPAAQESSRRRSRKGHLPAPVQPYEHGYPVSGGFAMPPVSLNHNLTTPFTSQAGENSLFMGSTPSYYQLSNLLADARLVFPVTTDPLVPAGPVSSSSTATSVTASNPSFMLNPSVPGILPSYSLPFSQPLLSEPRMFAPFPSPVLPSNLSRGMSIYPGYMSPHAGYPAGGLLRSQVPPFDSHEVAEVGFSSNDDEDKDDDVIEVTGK
# UniProt Q9Y371: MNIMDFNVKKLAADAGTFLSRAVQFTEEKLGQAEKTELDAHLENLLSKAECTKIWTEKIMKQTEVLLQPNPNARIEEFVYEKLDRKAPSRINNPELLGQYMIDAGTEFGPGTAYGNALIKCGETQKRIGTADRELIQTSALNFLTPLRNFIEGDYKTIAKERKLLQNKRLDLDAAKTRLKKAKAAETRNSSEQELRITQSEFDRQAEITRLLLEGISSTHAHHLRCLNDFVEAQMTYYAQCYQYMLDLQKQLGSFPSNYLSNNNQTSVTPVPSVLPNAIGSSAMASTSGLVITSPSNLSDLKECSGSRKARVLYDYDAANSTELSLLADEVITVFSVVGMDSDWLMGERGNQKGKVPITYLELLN
# UniProt Q9Y2G7: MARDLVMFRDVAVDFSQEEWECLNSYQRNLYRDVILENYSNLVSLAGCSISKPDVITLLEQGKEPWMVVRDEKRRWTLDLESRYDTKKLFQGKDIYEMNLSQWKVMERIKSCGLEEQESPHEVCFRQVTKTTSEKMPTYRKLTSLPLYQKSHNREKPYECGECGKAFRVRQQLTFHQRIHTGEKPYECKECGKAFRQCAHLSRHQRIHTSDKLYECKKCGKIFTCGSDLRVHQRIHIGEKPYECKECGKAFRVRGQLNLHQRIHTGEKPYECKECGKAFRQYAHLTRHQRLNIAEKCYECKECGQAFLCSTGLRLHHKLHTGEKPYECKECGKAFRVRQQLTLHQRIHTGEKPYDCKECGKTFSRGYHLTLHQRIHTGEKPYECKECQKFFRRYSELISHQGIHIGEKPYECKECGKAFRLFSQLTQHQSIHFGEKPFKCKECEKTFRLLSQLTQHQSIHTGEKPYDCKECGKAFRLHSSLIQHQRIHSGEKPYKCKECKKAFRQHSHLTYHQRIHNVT
# This is one part of the list. Most entries show no effect beyond the scatter of the controls.
# Compound: Cc1nc(Nc2ncc(C(=O)Nc3c(C)cccc3Cl)s2)cc(N2CCN(CCO)CC2)n1 [dasatinib]
# Test: log2 fold change of tryptic peptide abundance, ligand vs vehicle (limited proteolysis) (log2 ratio); higher = more trypsin-susceptible (destabilized)
# Settings: ligand concentration: 5 uM; sample: K562 cleared lysate
row,Target,log2 fold change
1,"IFT52 (peptide sequence: STILFNAYKK, peptide start residue: 7) (UniProt Q9Y366)",0.352
2,"EID1 (peptide sequence: VSAALEEADKMFLR, peptide start residue: 124) (UniProt Q9Y6B2)",0.23
3,"SNX11 (peptide sequence: STMTVSDAILR, peptide start residue: 143) (UniProt Q9Y5W9)",-0.118
4,"NDUFB9 (peptide sequence: EAEEEFWYR, peptide start residue: 66) (UniProt Q9Y6M9)",0.351
5,"UniProt Q9Y6A4 (peptide sequence: LYLPVQNK, peptide start residue: 183)",0.0393
6,"HDGFL3 (peptide sequence: NTTSDLQK, peptide start residue: 191) (UniProt Q9Y3E1)",0.0616
7,"UniProt Q9Y333 (peptide sequence: MLFYSFFK, peptide start residue: 1)",-0.178
8,"NME7 (peptide sequence: RYELLFYPGDGSVEMHDVK, peptide start residue: 23) (UniProt Q9Y5B8)",0.207
9,"RAD54L2 (peptide sequence: ESVLQLACLK, peptide start residue: 927) (UniProt Q9Y4B4)",-0.357
10,"SH3GLB1 (peptide sequence: ITQSEFDR, peptide start residue: 197) (UniProt Q9Y371)",-0.0724
11,"UniProt Q9Y2G7 (peptide sequence: SCGLEEQESPHEVCFR, peptide start residue: 111)",0.0602

# Two entries drawn at random from the list so far, as already listed:
row,Target,log2 fold change
1,"IFT52 (peptide sequence: STILFNAYKK, peptide start residue: 7) (UniProt Q9Y366)",0.352
3,"SNX11 (peptide sequence: STMTVSDAILR, peptide start residue: 143) (UniProt Q9Y5W9)",-0.118
